Data as given in the supplement of paper PMC8166895.
Where a name gives a salt, the structure may show the parent alone. The list shows a part of the results. Most values lie at the level of the controls, where differences are scatter.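 A single-replicate pilot screen of approved drugs and clinical or known-target compounds measured melting temperature via differential scanning fluorimetry. Top stabilizing hits raised the melting point by 2 °C or more; negative shifts indicate destabilization.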

test system: SARS-CoV-2 main protease (Mpro, nsp5); test: thermal shift ΔTm of Mpro relative to plate average Tm; higher = stronger thermal stabilization of Mpro (binding); conditions: 10 µM; protein concentration 1 µM

Row | Structure (SMILES) | thermal shift ΔTm of Mpro [°C]
1 | O=C(CCCCC(=O)Nc1c(I)cc(I)c(C(=O)O)c1I)Nc1c(I)cc(I)c(C(=O)O)c1I [Iodipamide] | -0.131
2 | NS(=O)(=O)Oc1ccc2c3c(c(=O)oc2c1)CCCCC3 [Irosustat] | 0.124
3 | N[C@@H](CC(=O)N1CCn2c(nnc2C(F)(F)F)C1)Cc1cc(F)c(F)cc1F [Sitagliptin phosphate monohydrate] | -0.03
4 | N[C@@H](CC(=O)N1CCn2c(nnc2C(F)(F)F)C1)Cc1cc(F)c(F)cc1F [Sitagliptin] | 0.00208
5 | O=C(NCc1ccc2c(c1)OCO2)c1c(Cl)cccc1Cl | 0.0211
6 | Nc1ccccc1NC(=O)CCCCCCC(=O)Nc1ccccc1 | 0.184
7 | Cn1cc(C2=C(c3cn(CCCSC(=N)N)c4ccccc34)C(=O)NC2=O)c2ccccc21 [Ro 31-8220 Mesylate] | 0.0167
8 | C[C@@H]1O[C@@H](O[C@H]2[C@H](Oc3cc(O)c4c(c3)O[C@H](c3ccc(O)cc3)CC4=O)O[C@H](CO)[C@@H](O)[C@@H]2O)[C@H](O)[C@H](O)[C@H]1O [Naringin] | -0.0237
9 | CNC(=O)Oc1cccc2ccccc12 [Carbaryl] | 0.0382
10 | CCOC(=O)c1cncn1[C@H](C)c1ccccc1 [Etomidate] | 0.279
11 | C/C(O)=C(\C#N)C(=O)Nc1ccc(C(F)(F)F)cc1 [Teriflunomide] | 0.189
12 | COc1nc(C)cnc1NS(=O)(=O)c1cccnc1-c1ccc(-c2nnco2)cc1 [Zibotentan (ZD4054)] | 0.217
13 | Cn1cc(/C=C/C(=O)c2cccc(F)c2)cc1/C=C/C(=O)NO | 0.611
14 | N=C(N/N=C/c1ccc(Cl)cc1)N/N=C/c1ccc(Cl)cc1 [Robenidine hydrochloride] | 0.0303
15 | Cc1nc(N(C)C(=O)Cc2ccc(-c3ccccn3)cc2)sc1S(N)(=O)=O [Pritelivir (BAY 57-1293)] | -0.222
16 | CC(=O)OCC(=O)[C@@]12OC3(CCCC3)O[C@@H]1C[C@H]1[C@@H]3CCC4=CC(=O)C=C[C@]4(C)[C@@]3(F)[C@@H](O)C[C@@]12C [Amcinonide] | 0.152
17 | Nc1nccc2c1ncn2C1C=C(CO)C(O)C1O (stereo unspecified) [3-Deazaneplanocin A (DZNeP)] | 0.0249
18 | C[C@@H]1O[C@@H](OC[C@H]2O[C@@H](Oc3c(-c4ccc(O)c(O)c4)oc4cc(O)cc(O)c4c3=O)[C@H](O)[C@@H](O)[C@@H]2O)[C@H](O)[C@H](O)[C@H]1O [Rutin] | -0.169
19 | CC(O)(CS(=O)(=O)c1ccc(F)cc1)C(=O)Nc1ccc(C#N)c(C(F)(F)F)c1 (stereo unspecified) [Bicalutamide] | 0.119
20 | COc1ccnc2[nH]cc(C(=O)C(=O)N3CCN(C(=O)c4ccccc4)C[C@H]3C)c12 | 0.0379
21 | Cc1nn(C)c(COc2ccc(N3CCN(S(=O)(=O)N(C)C)CC3)cc2)c1-c1cccc2c(CCCOc3cccc4ccccc34)c(C(=O)O)n(CCN3CCOCC3)c12 | 0.0497
22 | CO/N=C(\C(=O)N[C@@H]1C(=O)N2C(C(=O)O)=C(CSC(=O)c3ccco3)CS[C@H]12)c1csc(N)n1 [Ceftiofur HCl] | 0.164
23 | CO/N=C(\C(=O)N[C@@H]1C(=O)N2C(C(=O)O)=C(CSC(=O)c3ccco3)CS[C@H]12)c1csc(N)n1 [Sodium ceftiofur] | 0.0826
24 | CN(C)C(=O)N[C@H]1CC[C@H](CCN2CCN(c3cccc(Cl)c3Cl)CC2)CC1 [Cariprazine] | -0.047

Individual results from the list.
In thermal shift ΔTm of Mpro [°C], CO/N=C(\C(=O)N[C@@H]1C(=O)N2C(C(=O)O)=C(CSC(=O)c3ccco3)CS[C@H]12)c1csc(N)n1 [Ceftiofur HCl] has 0.164
In thermal shift ΔTm of Mpro [°C], Nc1nccc2c1ncn2C1C=C(CO)C(O)C1O (stereo unspecified) [3-Deazaneplanocin A (DZNeP)] has 0.0249

(continued)

Row | Structure (SMILES) | thermal shift ΔTm of Mpro [°C]
25 | CN1[C@@H]2CC[C@H]1C[C@@H](OC(c1ccccc1)c1ccccc1)C2 [Benztropine mesylate] | 0.0524
26 | CN1CCc2cc3c(cc2C1C1OC(=O)c2c1ccc1c2OCO1)OCO3 (single isomer, unassigned; (+)) [(+)-Bicuculline] | -0.115
27 | N=C(N)c1ccc(N=NNc2ccc(C(=N)N)cc2)cc1 [Diminazene Aceturate] | -0.179
28 | C[C@H](CCC(=O)O)[C@H]1CC[C@H]2[C@@H]3C[C@H](O)[C@@H]4C[C@H](O)CC[C@]4(C)[C@H]3CC[C@]12C [Hyodeoxycholic acid (HDCA)] | -0.209
29 | O=C(Nc1ccccc1)OCC(CN1CCCCC1)OC(=O)Nc1ccccc1 (stereo unspecified) [Diperodon hydrochloride] | 0.288
30 | Cc1nc2c(C)cccn2c(=O)c1CCN1CCC(c2noc3cc(F)ccc23)CC1 [Ocaperidona] | 0.0502
31 | COc1cc2c(cc1OC)-c1c(C)c3ccc(OC)c(OC)c3c[n+]1CC2 [Dehydrocorydaline nitrate] | -0.0165
32 | COc1cc2c(cc1OC)-c1c(C)c3ccc(OC)c(OC)c3c[n+]1CC2 [Dehydrocorydalin] | -0.0936
33 | CC1(C)C(=O)N(CCN2CCC(C(=O)c3ccc(F)cc3)CC2)c2ccccc21 | -0.191
34 | CC(C)(C)OC(=O)N[C@H]1CCCCC/C=C\[C@@H]2C[C@@]2(C(=O)NS(=O)(=O)C2CC2)NC(=O)[C@@H]2C[C@@H](OC(=O)N3Cc4cccc(F)c4C3)CN2C1=O [Danoprevir (ITMN-191)] | 0.193
35 | CCN1CCN(C(=O)Cc2ccc(Nc3ncc(F)c(Nc4ccc(C(=O)Nc5ccccc5Cl)cc4)n3)cc2)CC1 [Aurora A Inhibitor I] | 0.431
36 | CC[C@@]1(O)C(=O)OCc2c1cc1n(c2=O)Cc2cc3c(CN(C)C)c(O)ccc3nc2-1 [Topotecan HCl] | 0.0853
37 | Cc1cc(Nc2cc(CN3CCOCC3)c3nc(C)c(Cc4ccc(Cl)cc4F)n3n2)n[nH]1 | -0.304
38 | Brc1ccc(C2CN3CCSC3=N2)cc1 (single isomer, unassigned; (-)) [(-)-p-Bromotetramisole Oxalate] | -0.218
39 | CCOC(=O)N[C@@H]1CC[C@@H]2[C@@H](C1)C[C@H]1C(=O)O[C@H](C)[C@H]1[C@H]2/C=C/c1ccc(-c2cccc(F)c2)cn1 [Vorapaxar] | -0.135
40 | CCOC(=O)N[C@@H]1CC[C@@H]2[C@@H](C1)C[C@H]1C(=O)O[C@H](C)[C@H]1[C@H]2/C=C/c1ccc(-c2cccc(F)c2)cn1 [Vorapaxar sulfate] | -0.162
41 | Nc1nnc(-c2cccc(Cl)c2Cl)c(N)n1 [Lamotrigine] | -0.0606
42 | Nc1nc(=O)[nH]cc1F [Flucytosine] | 0.0593
43 | CCN1CCN(c2ccc(Nc3cc(N(C)C(=O)Nc4c(Cl)c(OC)cc(OC)c4Cl)ncn3)cc2)CC1 [Infigratinib] | -0.0222
44 | Oc1cc(O)cc(/C=C/c2ccc(O)c(O)c2)c1 [Piceatannol] | -0.375
45 | O=C(NC1CC1)c1cc(-c2cccs2)on1 [Isoxazole 9 (ISX-9)] | -0.0581
46 | CS(=O)(=O)c1ccc(NC(=O)c2cc(C#N)c(Sc3c(Cl)cncc3Cl)s2)cc1 [USP7/USP47 inhibitor] | 0.288
47 | CN1CCN(c2ccc(Nc3cc(-c4cccc(-n5ccc6cc(C7CC7)cc(F)c6c5=O)c4CO)cn(C)c3=O)nc2)CC1 | -0.0536
48 | CC(=O)O[C@]1(C(C)=O)CC[C@H]2[C@@H]3C=C(C)C4=CC(=O)CC[C@]4(C)[C@H]3CC[C@@]21C [Megestrol Acetate] | 0.154

4 entries drawn at random from those above:
Row | Structure (SMILES) | thermal shift ΔTm of Mpro [°C]
43 | CCN1CCN(c2ccc(Nc3cc(N(C)C(=O)Nc4c(Cl)c(OC)cc(OC)c4Cl)ncn3)cc2)CC1 [Infigratinib] | -0.0222
41 | Nc1nnc(-c2cccc(Cl)c2Cl)c(N)n1 [Lamotrigine] | -0.0606
11 | C/C(O)=C(\C#N)C(=O)Nc1ccc(C(F)(F)F)cc1 [Teriflunomide] | 0.189
12 | COc1nc(C)cnc1NS(=O)(=O)c1cccnc1-c1ccc(-c2nnco2)cc1 [Zibotentan (ZD4054)] | 0.217

Continuation:

Row | Structure (SMILES) | thermal shift ΔTm of Mpro [°C]
49 | C=C1[C@H](CO)[C@@H](O)C[C@@H]1n1cnc2c(=O)[nH]c(N)nc21 [Entecavir] | -0.0641
50 | C=C1[C@H](CO)[C@@H](O)C[C@@H]1n1cnc2c(=O)[nH]c(N)nc21 [Entecavir Hydrate] | 0.202
51 | CN(C)C(=O)c1cc2cnc(Nc3ccc(N4CCNCC4)cn3)nc2n1C1CCCC1 | -0.157
52 | CCCOc1ccc(C=C2SC(=O)NC2=O)cc1 | 0.028
53 | O=c1cccc2n1C[C@@H]1CNC[C@H]2C1 [Cytisine] | -0.141
54 | CCCC(=O)Nc1cccc(NC(=O)c2ccccc2Br)c1 | 0.0537
55 | C#CC1(O)CC[C@H]2[C@@H]3CCC4=CC(=O)CC[C@@H]4[C@H]3CC[C@@]21CC (stereo partly specified) [Norgestrel] | 0.152
56 | CO[C@H]1C[C@@H]2CC[C@@H](C)[C@@](O)(O2)C(=O)C(=O)N2CCCC[C@H]2C(=O)O[C@H]([C@H](C)C[C@@H]2CC[C@H](n3cnnn3)[C@H](OC)C2)CC(=O)[C@H](C)/C=C(\C)[C@@H](O)[C@@H](OC)C(=O)[C@H](C)C[C@H](C)/C=C/C=C/C=C/1C [Zotarolimus(ABT-578)] | -0.055
57 | CN(C)Cc1ccc(-c2cnn3c(-c4cccc(NC(=O)c5cccc(C(F)(F)F)c5)c4)ccnc23)cc1 | 0.381
58 | O=C(O)c1ccc(O)c2ncccc12 | 0.155
59 | COc1cc2ncnc(Nc3ccc(O)c(Br)c3)c2cc1OC | 0.229
60 | O=c1[nH]c(=S)[nH]c2nc(-c3ccccc3)c(-c3ccccc3)nc12 [SCR7 pyrazine] | -0.0118
61 | COc1cc(-c2cc(-c3cccc(O)c3)cnc2N)cc(OC)c1OC | -0.261
62 | O=C1NC(=O)/C(=C\c2c[nH]c(=O)c(-c3ccc(N4CCNCC4)nc3)c2)S1 [Protein kinase inhibitors 1 hydrochlorid] | 0.206
63 | CC(C)(C)NCC(O)COc1cccc2c1CC(O)C(O)C2 (stereo unspecified) [Nadolol] | 0.185
64 | CCN(CC)C(=O)c1ccc(C(=C2CCNCC2)c2ccccc2)cc1 | -0.0558
65 | Cc1ccc(S(=O)(=O)/C=C/C#N)cc1 | -0.416
66 | Nc1ccccc1NC(=O)c1ccc(CNc2nccc(-c3cccnc3)n2)cc1 [Mocetinostat (MGCD0103)] | -0.0694
67 | COc1cc(-c2cc(-c3ccc(N4CCNCC4)cc3)cnc2C)cc(OC)c1OC | -0.151
68 | Cn1nc(-c2ccc(C(F)(F)F)cc2)nc2c(=O)n(C)c(=O)nc1-2 [Walrycin B] | 0.0248
69 | O=[N+]([O-])O[C@H]1CO[C@H]2[C@@H]1OC[C@H]2O[N+](=O)[O-] [Isosorbide dinitrate] | 0.00365
70 | CC(C)(C)OC(=O)Nc1ccc(-c2cc(C(=O)NCCCCCCC(=O)NO)no2)cc1 | 0.556
71 | C=C1CC[C@@]2(O)[C@H]3Cc4ccc(O)c5c4[C@@]2(CCN3CC2CC2)[C@H]1O5 [Nalmefene hydrochloride] | 0.134
